# Test results from paper PMC7941204.
# No constants are given. Whether binding was seen depends on the method and setting. Binding can be weak; no strength is given.
# Experiments:
# Ce RAD-51 (C. elegans) = target: T1, Ce RAD-51 (C. elegans) (UniProt Q95Q25); experiment: native gel or EMSA; bulk EMSA, super-shift of RAD-51-ssDNA; 60 nM (nucleotides) 5'-32P 60-mer, 20 mM Tris-HCl pH 7.5, 50 mM sodium acetate, 2 mM MgCl2, 2 mM ATP, 25 C, cross-linked with 0.25% glutaraldehyde, 1% agarose gel; both purified
# T1 sequence: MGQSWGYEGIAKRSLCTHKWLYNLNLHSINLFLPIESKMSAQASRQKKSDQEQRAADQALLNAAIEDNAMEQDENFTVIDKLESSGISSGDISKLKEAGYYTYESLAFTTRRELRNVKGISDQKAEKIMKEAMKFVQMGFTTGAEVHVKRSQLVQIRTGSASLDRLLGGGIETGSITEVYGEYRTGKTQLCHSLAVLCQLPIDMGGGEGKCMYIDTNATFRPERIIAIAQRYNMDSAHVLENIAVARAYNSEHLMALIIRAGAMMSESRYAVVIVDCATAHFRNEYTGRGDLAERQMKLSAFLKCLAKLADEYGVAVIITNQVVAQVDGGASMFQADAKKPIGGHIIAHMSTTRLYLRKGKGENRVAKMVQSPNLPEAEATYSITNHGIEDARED
# [1] = target: T2, RAD-51 (yeast two-hybrid construct) (C. elegans) (UniProt Q95Q25); experiment: two-hybrid; S. cerevisiae MaV103; selection on medium lacking leucine, tryptophan and histidine with 100 mM 3-AT; as described previously (Taylor et al., 2015)
# T2 sequence: T1 sequence
binding (Ce RAD-51 (C. elegans)),binding [1],Substance
binds,–,Ce RFS-1 K56A/RIP-1-3xFLAG (C. elegans) (complex)
binds,–,Ce RFS-1 K56R/RIP-1-3xFLAG (C. elegans) (complex)
–,binds,RFS-1 K56A/RIP-1 mutant (yeast two-hybrid constructs) (C. elegans) (complex)
